Measurements published in publication doi:10.1101/2021.06.20.449050.
No constants are given. Whether binding was seen depends on the method and setting. In cells and extracts the contact can be indirect. Here binding means that the protein was enriched with, or labelled near, the bait; the list need not be complete.

Sequences of proteins named here, by UniProt entry; tags and fusion partners are left off.
UniProt Q9LMJ4: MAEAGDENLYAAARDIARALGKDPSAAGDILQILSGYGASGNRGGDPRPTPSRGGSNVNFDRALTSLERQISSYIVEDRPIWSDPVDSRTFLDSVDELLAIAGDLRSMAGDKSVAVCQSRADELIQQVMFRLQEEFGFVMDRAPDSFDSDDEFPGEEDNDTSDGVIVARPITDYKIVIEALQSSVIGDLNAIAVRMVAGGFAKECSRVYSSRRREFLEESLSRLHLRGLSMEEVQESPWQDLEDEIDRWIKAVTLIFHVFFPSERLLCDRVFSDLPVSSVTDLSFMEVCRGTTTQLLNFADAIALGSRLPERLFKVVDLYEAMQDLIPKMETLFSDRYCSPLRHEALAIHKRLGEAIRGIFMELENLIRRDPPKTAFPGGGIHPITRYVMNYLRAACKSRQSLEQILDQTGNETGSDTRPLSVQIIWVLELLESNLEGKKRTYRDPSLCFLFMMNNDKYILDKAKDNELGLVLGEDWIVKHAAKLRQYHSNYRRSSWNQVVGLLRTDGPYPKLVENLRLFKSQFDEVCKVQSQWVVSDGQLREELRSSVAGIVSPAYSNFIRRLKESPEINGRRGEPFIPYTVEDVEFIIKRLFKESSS
UniProt Q9LW76: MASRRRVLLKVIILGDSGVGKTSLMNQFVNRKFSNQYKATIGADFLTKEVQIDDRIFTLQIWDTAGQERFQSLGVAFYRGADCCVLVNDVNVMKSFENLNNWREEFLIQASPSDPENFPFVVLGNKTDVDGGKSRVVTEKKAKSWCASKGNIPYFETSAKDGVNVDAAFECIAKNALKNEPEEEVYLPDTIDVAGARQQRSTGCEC

Biological target: EXO70B2-GFP (Arabidopsis thaliana) (UniProt Q9LMJ4)
Assay: affinity purification with mass spectrometry

Substance: RabG3C (from UniProt Q9LW76 1-206)
- binding: binds
